In PubChem BioAssay AID504467 (National Center for Advancing Translational Sciences (NCATS), 2011):
In all, about 330,000 compounds went through this assay and about 7,700 (2.3%) were called active. The shares of active, inactive and inconclusive entries below differ from those in the screen. The call rests on the fitted dose curve; in most records, active means well fitted inhibition curve with a large enough effect; inconclusive means small, poorly fitted or top-dose-only effect, or effect the other way; inactive means flat fitted curve, though single readings scatter. Potencies of inconclusive entries are doubtful fits and often do not repeat.

assay: qHTS screen for small molecules that inhibit ELG1-dependent DNA repair in human embryonic kidney (HEK293T) cells expressing luciferase-tagged ELG1; conditions: HEK293T ELG1-luciferase reporter, luminescence, 16 h, DNA damage induced by 5-fluorouridine; series mostly up to 46.1 µM; further: nearly all actives have a fitted effect of over 55% in size
Outline: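 Luminescence from the luciferase reporter, measured 30 min after ONE-Glo reagent at room temperature, was the read-out. Beforehand, 2,000 cells per well were exposed for 16 hr at 37 °C to 5-fluorouridine together with compound or vehicle.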
Potency means the concentration at half of the fitted maximal effect.

Question: For `O=C(/C=C/c1ccc([N+](=O)[O-])o1)NNC(=O)c1ccc(F)cc1`, which Potency is on record?
Answer: inconclusive: 29.1 µM [inhibitor, single point]

Question: For `COc1cccc(-c2coc3cc4oc(=O)c(CCC(=O)O)c(C)c4cc23)c1`, which Potency is on record?
Answer: inactive

Question: Which Potency does the source give for `O=C(OCC(F)(F)F)c1cccc(COc2ccc3ccccc3c2)c1` here?
Answer: inconclusive: 0.092 µM [activator, full curve, poor fit]

Question: Which Potency does the source give for `NC(=S)Cc1ccccc1Cl` here?
Answer: inactive

Question: For `CC(=O)Nc1ccc(C(=O)Nc2ccc(S(=O)(=O)N3CCOCC3)cc2)cc1`, which Potency is on record?
Answer: inconclusive: 35.5 µM [activator, single point]

Question: With `O=S(=O)(c1ccccc1)C1CON(Cc2ccccc2)C1c1ccccc1` (stereo unspecified) as the compound, how does the Potency read?
Answer: inconclusive: 29.1 µM [inhibitor, single point]

Question: With `Cc1ccc([N+](=O)[O-])cc1N=Nc1c(-c2ccc([N+](=O)[O-])cc2)[nH]n(C(N)=S)c1=O` as the compound, how does the Potency read?
Answer: inconclusive: 2.31 µM [inhibitor, full curve]

Question: With `Cc1cc(=O)oc2cc(OCC(=O)Nc3ccc(CN4CCOCC4)cc3)c(Cl)cc12` as the compound, how does the Potency read?
Answer: inactive

Question: With `O=C(N=C1N=C2C=CC=CN2Cc2ccccc21)c1ccc(S(=O)(=O)N2CCCC2)cc1` as the compound, how does the Potency read?
Answer: inconclusive: 5.8 µM [activator, single point]

Question: Which Potency does the source give for `CNC(=S)NNC(=O)c1cccn(Cc2ccc(Cl)cc2Cl)c1=O` here?
Answer: inactive

Question: Which Potency does the source give for `Cc1ccnn2c(-c3ccccc3)c3c(=O)n(C)c(=O)n(C)c3c12` here?
Answer: inactive

Question: Which Potency does the source give for `COC(c1ccccc1)c1nnc(CCC(=O)NCc2cccc(-n3cccn3)c2)o1` (stereo unspecified) here?
Answer: inactive

Question: Which Potency does the source give for `Cc1cc(C)cc(C(=O)NC(=S)Nc2ccc(Cc3ccncc3)cc2)c1` here?
Answer: inconclusive: 16.4 µM [inhibitor, partial curve, poor fit]

Question: Which Potency does the source give for `Fc1cccc(CSc2ccc(-c3ccco3)nn2)c1` here?
Answer: inconclusive: 18.4 µM [activator, partial curve]

Question: With `Brc1ccc(N=Cc2ccccn2)cc1` as the compound, how does the Potency read?
Answer: inconclusive: 23.1 µM [activator, single point]

Question: Which Potency does the source give for `CN1C2CCC1/C(=C/c1cccn1C)C(=O)/C2=C\c1cccn1C` here?
Answer: inconclusive: 32.6 µM [inhibitor, partial curve, poor fit]

Question: Which Potency does the source give for `COc1ccc(N(CC(=O)NCCSc2ccccc2)S(=O)(=O)c2ccccc2)cc1` here?
Answer: inconclusive: 23.1 µM [inhibitor, single point]

Question: Which Potency does the source give for `Clc1ccc2nc(-c3cccc(SC4CCCCC4)c3)c(NCc3ccccc3)n2c1` here?
Answer: inconclusive: 35.5 µM [inhibitor, single point]

Question: For `COc1ccccc1OCC(=O)OCC(=O)NC1CCCCC1`, which Potency is on record?
Answer: inactive

Question: With `COc1ccccc1NC(=O)c1ccccc1NC(=O)c1cc(Cl)ccc1NC(=O)c1ccco1` as the compound, how does the Potency read?
Answer: inactive

Question: For `CCn1c(C)nc2cc(-c3nnc(-c4c(-c5ccccc5)noc4C)o3)ccc21`, which Potency is on record?
Answer: active: 20.6 µM

Question: For `CSc1cccc(NC(=O)CN(C)S(=O)(=O)c2ccc(C)cc2)c1`, which Potency is on record?
Answer: inactive

Question: For `Cc1cc(NC(=O)/C=C/c2ccccc2)no1`, which Potency is on record?
Answer: inconclusive: 8.2 µM [activator, partial curve]

Question: For `O=C(CCNC(=O)c1ccco1)Nc1ccc(Cl)c(C(F)(F)F)c1`, which Potency is on record?
Answer: inactive

Question: For `COc1ccccc1C(=O)NC(=S)Nc1ccc(N2CCN(C(=O)c3ccco3)CC2)cc1`, which Potency is on record?
Answer: active: 13 µM

Question: Which Potency does the source give for `O=C(OCc1nc2ccccc2s1)c1ccc(Br)s1` here?
Answer: inconclusive: 35.5 µM [activator, single point]

Question: With `Cc1ccc(CN2CCN(C(=O)c3cccc4ccccc34)CC2)cc1` as the compound, how does the Potency read?
Answer: inconclusive: 18.3 µM [inhibitor, partial curve, poor fit]

Question: With `Cc1cc(OCC(=O)NC(C)(C)C)ccc1Cl` as the compound, how does the Potency read?
Answer: inconclusive: 18.4 µM [activator, partial curve]

Question: For `Cc1cc(=O)[nH]c(N/N=C/c2cccs2)n1`, which Potency is on record?
Answer: inconclusive: 20.6 µM [activator, partial curve]

Question: With `CCN(C(=O)COC(=O)c1ccc(=O)n(Cc2ccccc2)n1)C1CCS(=O)(=O)C1` (stereo unspecified) as the compound, how does the Potency read?
Answer: inconclusive: 6.51 µM [activator, single point]

Question: With `COc1ccc2nc(Nc3sc4c(c3C(N)=O)CCCC4)sc2c1` as the compound, how does the Potency read?
Answer: inconclusive: 20.6 µM [activator, partial curve]

Question: With `CN(C)C(=O)c1ccc(-c2cc(C(F)(F)F)nn2C)s1` as the compound, how does the Potency read?
Answer: inconclusive: 18.3 µM [activator, partial curve]

Question: For `Cc1ccc(NC(=S)N/N=C/c2c(C)nn(-c3ccccc3)c2N2CCCC2)cc1`, which Potency is on record?
Answer: inactive

Question: With `Cc1cccc(NC(=S)NC(NC(=O)c2ccco2)C(Cl)(Cl)Cl)c1` (stereo unspecified) as the compound, how does the Potency read?
Answer: inconclusive: 6.51 µM [inhibitor, partial curve, poor fit]

Question: With `CCc1ccc(NC(=O)c2n[nH]c(=O)c3ccccc23)cc1` as the compound, how does the Potency read?
Answer: inconclusive: 2.59 µM [activator, full curve]

Question: Which Potency does the source give for `COc1cccc(-n2ccnc2SCC(=O)N2CCCc3ccccc32)c1` here?
Answer: inactive

Question: With `CCNC(=S)N1CCN(S(=O)(=O)c2cccc(C(F)(F)F)c2)CC1` as the compound, how does the Potency read?
Answer: inactive

Question: Which Potency does the source give for `Cc1ccc(OCCn2cc(/C=N/NC(=O)c3ccncc3)c3ccccc32)cc1` here?
Answer: inconclusive: 25.9 µM [inhibitor, partial curve]

Question: With `Cc1ccc(NC(=S)NC(NC(=O)C(C)(C)C)C(Cl)(Cl)Cl)c(C)c1` (stereo unspecified) as the compound, how does the Potency read?
Answer: inactive

Question: Which Potency does the source give for `CCN1CN(CCc2ccccc2)CNC1=S` here?
Answer: inactive

Question: Which Potency does the source give for `Cc1cc(C)cc(N(CC(=O)NCCSCc2ccccc2)S(C)(=O)=O)c1` here?
Answer: inconclusive: 18.3 µM [inhibitor, partial curve]

Question: With `O=Cc1cc2ccccc2nc1SCc1ccc(Cl)c(Cl)c1` as the compound, how does the Potency read?
Answer: inconclusive: 11.2 µM [activator, partial curve, poor fit]

Question: Which Potency does the source give for `COc1cc2c(cc1NC(=O)COC(=O)[C@@H](NC(=O)c1ccccc1)C(C)C)oc1ccccc12` here?
Answer: inconclusive: 23.1 µM [inhibitor, single point]

Question: For `Cc1ccc(Nc2cc(C)nn2-c2nc(C)cc(=O)[nH]2)cc1`, which Potency is on record?
Answer: inconclusive: 8.2 µM [inhibitor, partial curve, poor fit]

Question: For `Nc1cc(C2CCCC2)nn1-c1ccccc1`, which Potency is on record?
Answer: inconclusive: 10.3 µM [activator, partial curve]

Question: With `O=C(CSc1nc2ncccc2[nH]1)c1ccc(F)cc1` as the compound, how does the Potency read?
Answer: inconclusive: 29.1 µM [activator, single point]
